{"source": "the supplement of paper PMC8256030", "note": "“And” between values parts separate entries of the source, which are not always exact repeats. Equal values may be shown once. This is one part of the list. Repeats in this data set agree poorly, so a single value says little.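 HEK293T cells were given each compound shortly before transfection with a reporter in which red mCherry is followed by the SARS-CoV-2 frameshift element and then GFP in the −1 frame, so GFP appears only after frameshifting.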", "data": [{"system": "SARS-CoV-2 -1 PRF reporter mCherry-FSE-GFP(-1)", "test": "mCherry (red) intensity as percent of control; higher = higher upstream reporter expression", "settings": "10 µM; 24 h; HEK293T", "values": [{"smiles": "NC[C@H]1CC[C@H](C(=O)O)CC1", "note": "[tranexamic acid]", "mCherry": "98.6%"}, {"smiles": "CCCCCC(C)NCc1c(C)cc(C)cc1C", "note": "(stereo unspecified) [trimexiline]", "mCherry": "135%"}, {"smiles": "NS(=O)(=O)c1cc(Cl)c(Cl)c(S(N)(=O)=O)c1", "note": "[diclofenamide]", "mCherry": "109%"}, {"smiles": "C=C1CC[C@H](O)C/C1=C/C=C1\\CCC[C@]2(C)[C@@H]([C@H](C)/C=C/[C@H](C)C(C)C)CC[C@@H]12", "note": "[ergocalciferol]", "mCherry": "108%"}, {"smiles": "CCC(=O)O[C@@H](O[P@](=O)(CCCCc1ccccc1)CC(=O)N1C[C@H](C2CCCCC2)C[C@H]1C(=O)O)C(C)C", "note": "[Fosinopril]", "mCherry": "84.3%"}, {"smiles": "CCC(C)C(C(=O)OC1CC[N+](C)(C)CC1)c1ccccc1", "note": "(stereo unspecified) [pentapiperium metilsulfate]", "mCherry": "85.5%"}, {"smiles": "C[C@@H]1C[C@H]2[C@@H]3CCC4=CC(=O)C=C[C@]4(C)[C@@]3(F)[C@@H](O)C[C@]2(C)[C@@]1(O)C(=O)CO", "note": "[dexamethasone]", "mCherry": "108% and 115%"}, {"smiles": "O=C(O)Cc1nn(Cc2ccc(Br)cc2F)c(=O)c2ccccc12", "note": "[ponalrestat]", "mCherry": "95.9%"}, {"smiles": "NC(=O)N1CCC(CC(=O)N2CCC([C@H]3c4ncc(Br)cc4CCc4cc(Cl)cc(Br)c43)CC2)CC1", "note": "[lonafarnib]", "mCherry": "34.1%"}, {"smiles": "CCn1cc(C(=O)O)c(=O)c2cc(F)c(N3CCN(C)CC3)cc21", "mCherry": "93%"}, {"smiles": "CC1CC(OC(=O)C(O)c2ccccc2)CC(C)(C)C1", "note": "(stereo unspecified) [cyclandelate]", "mCherry": "104%"}, {"smiles": "Oc1ncnc2[nH]ncc12", "note": "[allopurinol]", "mCherry": "93.4%"}, {"smiles": "CN1[C@@H]2CC[C@H]1C[C@@H](OC(=O)c1c[nH]c3ccccc13)C2", "note": "[Tropisetron]", "mCherry": "71.1%"}]}, {"system": "SARS-CoV-2 -1 PRF reporter mCherry-FSE-GFP(-1)", "test": "percent effect, decrease of GFP/mCherry ratio (-1 PRF reporter) relative to controls; higher = stronger frameshift inhibition", "settings": "10 µM; 24 h; HEK293T", "values": [{"smiles": "CC(C)c1nc(N(C)S(C)(=O)=O)nc(-c2ccc(F)cc2)c1/C=C/[C@@H](O)C[C@@H](O)CC(=O)O", "note": "[Rosuvastatin]", "percent effect": "-4.2%"}, {"smiles": "Clc1ccc(OCC2=NCCc3ccccc32)cc1", "note": "[famotine]", "percent effect": "-6.67%"}, {"smiles": "NC(=O)CCC/N=C(\\c1ccc(Cl)cc1)c1cc(F)ccc1O", "note": "[progabide]", "percent effect": "-4.79%"}, {"smiles": "COc1cc2c(c(OC)c1OC)-c1c(cc3c(c1OC)OCO3)C[C@H](C)[C@@](C)(O)C2", "note": "[besigomsin]", "percent effect": "-5.27%"}, {"smiles": "O=C1Cc2cc(CCN3CCN(c4nsc5ccccc45)CC3)c(Cl)cc2N1", "percent effect": "1.29%"}, {"smiles": "Nc1nc(O)c2ncn(CCC(CO)CO)c2n1", "note": "[Penciclovir]", "percent effect": "-7.16%"}, {"smiles": "Nc1ccn([C@@H]2CS[C@H](CO)O2)c(=O)n1", "note": "[lamivudine]", "percent effect": "-0.742%"}, {"smiles": "CCC1=C(C)CN(C(=O)NCCc2ccc(S(=O)(=O)NC(=O)N[C@H]3CC[C@H](C)CC3)cc2)C1=O", "percent effect": "-5.81%"}, {"smiles": "c1cnc(N2CCN(Cc3ccc4c(c3)OCO4)CC2)nc1", "note": "[Piribedil·2HCl]", "percent effect": "0.531%"}, {"smiles": "N=C(N)NC(=O)c1nc(Cl)c(N)nc1N", "note": "[Amiloride]", "percent effect": "3.26%"}, {"smiles": "O=C(O)C1(C(=O)O)CCC1.[NH2-].[NH2-].[Pt+2]", "note": "[Carboplatin]", "percent effect": "1.57%"}, {"smiles": "CCC[C@@H]1C[C@@H](C(=O)N[C@@H]([C@H]2O[C@H](SC)[C@H](O)[C@@H](O)[C@H]2O)[C@@H](C)O)N(C)C1", "note": "[lincomycin]", "percent effect": "-18.3%"}, {"smiles": "O=C(NCCN1CCN(c2ncccn2)CC1)C12CC3CC(CC(C3)C1)C2", "note": "[adatanserin]", "percent effect": "-10.4%"}, {"smiles": "Cc1cncc(CN2CCC(=C3c4ccc(Cl)cc4CCc4cccnc43)CC2)c1", "note": "[rupatadine]", "percent effect": "-6.86%"}, {"smiles": "CCC[C@@H]1C[C@@H](C(=O)N[C@@H]([C@H]2O[C@H](SC)[C@H](O)[C@@H](O)[C@H]2O)[C@@H](C)O)N(C)C1", "note": "[Lincocin]", "percent effect": "-5.21%"}, {"smiles": "Nc1nc2c(c(=O)[nH]1)N(C=O)C(CNc1ccc(C(=O)N[C@@H](CCC(=O)O)C(=O)O)cc1)CN2", "note": "(stereo partly specified)", "percent effect": "-2.77%"}, {"smiles": "C/C(=C(/CCOC(=O)c1ccccc1)SC(=O)c1ccccc1)N(C=O)Cc1cnc(C)nc1N", "note": "[bentiamine]", "percent effect": "-1.94%"}, {"smiles": "CCN[C@H]1C[C@H](C)S(=O)(=O)c2sc(S(N)(=O)=O)cc21", "note": "[dorzolamide]", "percent effect": "3.98%"}, {"smiles": "COC(=S)NCCn1c([N+](=O)[O-])cnc1C", "note": "[carnidazole]", "percent effect": "1.28%"}, {"smiles": "Cc1nc2n(c(=O)c1CCN1CCC(c3noc4cc(F)ccc34)CC1)CCCC2O", "note": "(stereo unspecified) [paliperidone]", "percent effect": "-1.08% and -4.56%"}, {"smiles": "CCc1nnc(NS(=O)(=O)c2ccc(N)cc2)s1", "note": "[sulfaethidole]", "percent effect": "-6.49%"}, {"smiles": "COc1c(N2C[C@@H]3CCCN[C@@H]3C2)c(F)cc2c(=O)c(C(=O)O)cn(C3CC3)c12", "note": "[moxifloxacin]", "percent effect": "-1.71%"}, {"smiles": "CCC(NC(C)C)C(O)c1ccc(O)c(O)c1", "note": "(stereo unspecified)", "percent effect": "2.67%"}]}]}
